Laboratory results from patent publication US20200197536A1.
Results are given in words; binding and its absence hold for the method and conditions named. Some binding calls cover weakened binding; strength is not graded here. Tags and fused reporters may be left off the sequences shown.

Protein sequences, listed by entry. Tags and fused reporters are not part of them. Residues count along the entry.
UniProt P08581, residues 25-932: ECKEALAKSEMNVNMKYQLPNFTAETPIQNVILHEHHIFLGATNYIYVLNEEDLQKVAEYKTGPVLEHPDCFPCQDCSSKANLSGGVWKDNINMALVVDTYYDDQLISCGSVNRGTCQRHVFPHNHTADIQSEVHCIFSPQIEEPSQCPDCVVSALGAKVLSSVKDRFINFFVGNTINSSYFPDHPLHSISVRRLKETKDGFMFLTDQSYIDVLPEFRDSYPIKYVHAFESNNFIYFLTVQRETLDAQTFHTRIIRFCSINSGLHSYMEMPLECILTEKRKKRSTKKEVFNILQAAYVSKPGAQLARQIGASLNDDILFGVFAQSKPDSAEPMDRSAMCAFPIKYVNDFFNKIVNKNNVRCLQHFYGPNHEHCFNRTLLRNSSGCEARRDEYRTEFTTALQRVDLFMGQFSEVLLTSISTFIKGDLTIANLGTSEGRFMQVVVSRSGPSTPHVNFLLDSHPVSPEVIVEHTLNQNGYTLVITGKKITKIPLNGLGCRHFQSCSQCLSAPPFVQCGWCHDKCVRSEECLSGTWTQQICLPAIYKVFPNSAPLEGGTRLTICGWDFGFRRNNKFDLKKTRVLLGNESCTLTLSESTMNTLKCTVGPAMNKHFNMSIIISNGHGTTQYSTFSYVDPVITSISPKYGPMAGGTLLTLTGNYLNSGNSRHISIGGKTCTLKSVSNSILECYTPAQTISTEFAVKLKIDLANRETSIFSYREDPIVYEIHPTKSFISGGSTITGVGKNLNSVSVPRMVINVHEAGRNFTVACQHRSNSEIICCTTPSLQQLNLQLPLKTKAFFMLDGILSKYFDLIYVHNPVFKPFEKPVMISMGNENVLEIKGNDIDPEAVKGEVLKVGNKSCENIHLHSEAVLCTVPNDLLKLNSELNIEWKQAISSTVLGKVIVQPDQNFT

Target: recombinant human Met (rhMet), fused to the Fc domain of human IgG (human) (UniProt P08581)
Test: phage display affinity selection on rhMet-Fc, five rounds; phage ELISA on rhMet

binding | Binder
binds | IPLKVHP [IPLKVHP (Ile-Pro-Leu-Lys-Val-His-Pro)]
binds | WPRLTNM [WPRLTNM (Trp-Pro-Arg-Leu-Thr-Asn-Met)]
binds | TSPVALL [TSPVALL (Thr-Ser-Pro-Val-Ala-Leu-Leu)]
binds | ASVHFPP [ASVHFPP (Ala-Ser-Val-His-Phe-Pro-Pro)]
binds | TATFWFQ [TATFWFQ (Thr-Ala-Thr-Phe-Trp-Phe-Gln)]
